Here are results for 5 molecules from publication PMC7928032.

Chains of the proteins cited; added tags and fusions are not shown. Residues count along the entry.
UniProt Q71RC2, residues 111-287: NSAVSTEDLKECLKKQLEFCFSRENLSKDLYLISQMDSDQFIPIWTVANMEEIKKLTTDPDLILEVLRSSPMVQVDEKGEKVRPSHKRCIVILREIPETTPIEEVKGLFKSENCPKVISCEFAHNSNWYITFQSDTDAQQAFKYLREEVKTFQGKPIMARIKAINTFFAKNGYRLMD
UniProt Q92615, residues 151-328: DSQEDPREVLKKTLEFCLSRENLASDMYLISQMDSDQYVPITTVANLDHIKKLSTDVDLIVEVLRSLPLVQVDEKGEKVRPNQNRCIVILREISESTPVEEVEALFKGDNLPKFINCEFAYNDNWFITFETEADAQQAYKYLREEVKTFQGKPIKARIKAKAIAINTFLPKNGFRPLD

The target of experiment [1] is HsLaRP4A La-module (111–287) (human) (UniProt Q71RC2). Nature of the experiment: SEC-SAXS; in-line size exclusion (Agilent BioSEC3, 300 Å pores) with SAXS at SWING, SOLEIL; apo protein loaded at around 150–200 μM; 20 mM Tris pH 7.5, 100 mM KCl, 1 mM TCEP; 25°C; molecular weight from Porod volume compared with sequence; both purified.
In experiment [2] the target is HsLaRP4B La-module (151–328) (human) (UniProt Q92615). Described as above.
Experiment [3] addresses HsLa La-module (4–194) (human) (UniProt P05455). The description is as above.
Experiment [4] addresses HsLaRP7 La-module (1–208) (human) (UniProt Q4G0J3). The experiment in a line: SEC-SAXS; in-line size exclusion (Agilent BioSEC3, 300 Å pores) with SAXS at SWING, SOLEIL; apo protein loaded at around 200 µM; 20 mM HEPES pH 7.2, 200 mM NaCl, 5 mM MgCl2, 0.5 mM TCEP; 25°C; molecular weight from Porod volume compared with sequence; both purified. On the technique in general: In gel filtration, larger molecules generally elute earlier.

Experiment [5] addresses HsLaRP6 85–300 La-module (human) (UniProt Q9BRS8). Nature of the experiment: SEC-SAXS; in-line size exclusion (Agilent BioSEC3, 300 Å pores) with SAXS at SWING, SOLEIL; apo protein loaded at around 150–200 μM; 20 mM Tris pH 7.5, 100 mM KCl, 1 mM TCEP; 25°C; molecular weight from Porod volume compared with sequence; both purified.

These are yes or no findings as the source states them, for the method shown.

Take “HsLaRP4A La-module (111–287) (from UniProt Q71RC2 111-287) (domain or fragment)”: the binding result in experiment [1] is recorded as “no binding (tested: 150–200 μM)”.

For the molecule “HsLaRP4B La-module (151–328) (from UniProt Q92615 151-328) (domain or fragment)”, the binding result in experiment [2] is “no binding (tested: 150–200 μM)”.

B1: HsLa La-module (4–194) (domain or fragment, UniProt P05455 4-194)
chain: NGDNEKMAALEAKICHQIEYYFGDFNLPRDKFLKEQIKLDEGWVPLEIMIKFNRLNRLTTDFNVIVEALSKSKAELMEISEDKTKIRRSPSKPLPEVTDEYKNDVKNRSVYIKGFPTDATLDDIKEWLEDKGQVLNIQMRRTLHKAFKGSIFVVFDSIESAKKFVETPGQKYKETDLLILFKDDYFAKKNE
Take B1: in experiment [3], the binding result is on record as “no binding (tested: 150–200 μM)”.

B2: HsLaRP7 La-module (1–208) (domain or fragment, UniProt Q4G0J3 1-208)
chain: METESGNQEKVMEEESTEKKKEVEKKKRSRVKQVLADIAKQVDFWFGDANLHKDRFLREQIEKSRDGYVDISLLVSFNKMKKLTTDGKLIARALRSSAVVELDLEGTRIRRKKPLGERPKDEDERTVYVELLPKNVNHSWIERVFGKCGNVVYISIPHYKSTGDPKGFAFVEFETKEQAAKAIEFLNNPPEEAPRKPGIFPKTVKNKP
Turning to B2, the binding entry in experiment [4] was “no binding (tested: around 200 µM)”.

B3: HsLaRP6 85–300 La-module (domain or fragment, UniProt Q9BRS8 85-300)
chain: WKPPDEELIKKLVDQIEFYFSDENLEKDAFLLKHVRRNKLGYVSVKLLTSFKKVKHLTRDWRTTAHALKYSVVLELNEDHRKVRRTTPVPLFPNENLPSKMLLVYDLYLSPKLWALATPQKNGRVQEKVMEHLLKLFGTFGVISSVRILKPGRELPPDIRRISSRYSQVGTQECAIVEFEEVEAAIKAHEFMITESQGKENMKAVLIGMKPPKKKP
With B3, the binding entry in experiment [5] is on record as “no binding (tested: 150–200 μM)”.
